In the supplement of paper PMC10849652:
Some of the results follow.

The chains behind the UniProt entries cited, without tags or fusion partners. Where a name states a change or a piece, a line headed by the entry shows the natural chain unless it says otherwise.
UniProt P03886, whole entry, looked up: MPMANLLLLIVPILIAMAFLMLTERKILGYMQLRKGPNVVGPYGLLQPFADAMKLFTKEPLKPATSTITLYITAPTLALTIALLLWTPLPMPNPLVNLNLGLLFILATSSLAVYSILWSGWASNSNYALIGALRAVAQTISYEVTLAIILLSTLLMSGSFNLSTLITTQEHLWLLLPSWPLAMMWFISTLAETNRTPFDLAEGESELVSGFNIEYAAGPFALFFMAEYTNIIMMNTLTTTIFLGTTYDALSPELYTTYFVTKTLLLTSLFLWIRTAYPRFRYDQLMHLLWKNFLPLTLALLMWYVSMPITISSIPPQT
UniProt O75431: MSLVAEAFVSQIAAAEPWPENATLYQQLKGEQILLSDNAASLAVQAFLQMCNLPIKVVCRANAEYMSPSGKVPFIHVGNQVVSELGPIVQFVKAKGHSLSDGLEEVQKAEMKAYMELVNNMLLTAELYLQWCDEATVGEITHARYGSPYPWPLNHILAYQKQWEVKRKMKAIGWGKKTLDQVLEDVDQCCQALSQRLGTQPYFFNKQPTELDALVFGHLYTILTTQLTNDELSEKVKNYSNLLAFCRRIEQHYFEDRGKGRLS
UniProt P49914: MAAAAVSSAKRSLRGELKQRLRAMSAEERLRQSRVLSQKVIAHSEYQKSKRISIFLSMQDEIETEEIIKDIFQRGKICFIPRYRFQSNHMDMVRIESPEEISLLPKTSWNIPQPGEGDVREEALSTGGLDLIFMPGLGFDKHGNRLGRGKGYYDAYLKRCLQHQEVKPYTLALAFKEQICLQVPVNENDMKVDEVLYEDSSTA
UniProt Q86UE4: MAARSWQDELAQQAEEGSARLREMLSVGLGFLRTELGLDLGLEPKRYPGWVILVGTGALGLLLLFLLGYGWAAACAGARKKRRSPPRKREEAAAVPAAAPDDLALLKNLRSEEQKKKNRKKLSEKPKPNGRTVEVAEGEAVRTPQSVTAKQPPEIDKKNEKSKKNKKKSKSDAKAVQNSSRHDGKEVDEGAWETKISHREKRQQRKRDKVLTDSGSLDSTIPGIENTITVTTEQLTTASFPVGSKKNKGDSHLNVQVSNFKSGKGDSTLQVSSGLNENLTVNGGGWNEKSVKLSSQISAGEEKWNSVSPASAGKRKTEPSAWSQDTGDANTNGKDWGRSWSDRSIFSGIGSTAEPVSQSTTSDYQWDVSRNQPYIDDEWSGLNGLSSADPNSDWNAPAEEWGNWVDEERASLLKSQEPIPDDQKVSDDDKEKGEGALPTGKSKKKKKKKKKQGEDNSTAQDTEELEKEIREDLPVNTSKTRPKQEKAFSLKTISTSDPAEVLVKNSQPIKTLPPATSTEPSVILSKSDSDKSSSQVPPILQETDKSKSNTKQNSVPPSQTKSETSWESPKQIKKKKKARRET
UniProt Q9P0P8: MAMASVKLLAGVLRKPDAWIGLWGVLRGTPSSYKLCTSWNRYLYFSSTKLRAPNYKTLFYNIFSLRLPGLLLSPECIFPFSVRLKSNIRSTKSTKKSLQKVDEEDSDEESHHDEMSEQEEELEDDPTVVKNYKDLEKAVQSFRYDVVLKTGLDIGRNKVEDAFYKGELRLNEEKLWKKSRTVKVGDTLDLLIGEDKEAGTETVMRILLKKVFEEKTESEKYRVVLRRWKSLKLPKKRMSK
UniProt Q13505: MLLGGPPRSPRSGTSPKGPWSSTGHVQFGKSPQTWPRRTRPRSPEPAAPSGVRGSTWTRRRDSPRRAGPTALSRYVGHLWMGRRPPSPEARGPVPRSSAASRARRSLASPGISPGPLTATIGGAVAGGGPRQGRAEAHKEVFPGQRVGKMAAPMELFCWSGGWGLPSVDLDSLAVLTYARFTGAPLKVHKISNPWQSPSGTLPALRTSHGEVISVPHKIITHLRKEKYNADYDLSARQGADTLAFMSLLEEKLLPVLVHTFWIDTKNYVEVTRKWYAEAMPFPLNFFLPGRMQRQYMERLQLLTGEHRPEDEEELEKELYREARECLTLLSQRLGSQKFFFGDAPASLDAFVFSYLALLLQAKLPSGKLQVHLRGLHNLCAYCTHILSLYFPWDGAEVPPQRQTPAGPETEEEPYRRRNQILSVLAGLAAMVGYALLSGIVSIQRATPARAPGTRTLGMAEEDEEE
UniProt Q9BTC8: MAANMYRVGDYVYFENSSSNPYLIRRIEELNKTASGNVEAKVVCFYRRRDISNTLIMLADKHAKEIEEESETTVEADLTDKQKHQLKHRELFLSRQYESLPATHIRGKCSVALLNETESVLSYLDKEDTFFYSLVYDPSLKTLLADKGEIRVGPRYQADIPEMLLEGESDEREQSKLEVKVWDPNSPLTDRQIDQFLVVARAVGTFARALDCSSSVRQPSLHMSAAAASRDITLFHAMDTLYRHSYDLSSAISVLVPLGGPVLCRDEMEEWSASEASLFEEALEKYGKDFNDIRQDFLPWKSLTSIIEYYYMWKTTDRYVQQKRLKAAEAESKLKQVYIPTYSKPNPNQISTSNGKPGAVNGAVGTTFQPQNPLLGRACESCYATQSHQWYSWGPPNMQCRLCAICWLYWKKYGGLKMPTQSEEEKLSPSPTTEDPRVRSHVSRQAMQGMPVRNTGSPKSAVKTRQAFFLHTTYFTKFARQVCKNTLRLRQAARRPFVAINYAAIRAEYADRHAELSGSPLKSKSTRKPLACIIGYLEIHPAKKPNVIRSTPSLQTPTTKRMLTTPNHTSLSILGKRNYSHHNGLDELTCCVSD
UniProt P03891, whole entry, looked up: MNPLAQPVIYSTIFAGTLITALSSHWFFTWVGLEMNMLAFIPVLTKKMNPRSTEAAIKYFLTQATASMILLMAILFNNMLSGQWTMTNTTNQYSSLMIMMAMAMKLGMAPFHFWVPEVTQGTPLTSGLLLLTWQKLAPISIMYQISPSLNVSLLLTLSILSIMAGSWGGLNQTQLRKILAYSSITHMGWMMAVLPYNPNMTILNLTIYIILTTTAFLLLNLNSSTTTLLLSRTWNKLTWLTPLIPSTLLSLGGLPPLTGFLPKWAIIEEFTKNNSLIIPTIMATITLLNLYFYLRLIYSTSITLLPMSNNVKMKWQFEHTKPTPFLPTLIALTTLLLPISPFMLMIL

Assays:
Assay in all cases: log2 fold change, soluble protein after heating vs DMSO (PISA); higher = thermal stabilisation; K562 lysate, 10 uM; active = over 0.2 and 3.5 SD of the protein, either way, in both replicates (recomputed)
nilotinib = compound: Cc1cn(-c2cc(NC(=O)c3ccc(C)c(Nc4nccc(-c5cccnc5)n4)c3)cc(C(F)(F)F)c2)cn1 [nilotinib]
Method in brief: (§1)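 To prepare the extract, K562 pellets were dounce-homogenised in PBS pH 7.4 with 1 mM MgCl2, giving crude material at 1 mg/mL protein. This was treated with 10 μM compound for 30 min, then heated in aliquots for 3 min over 48°C-58°C before pooling and addition of NP-40 to 0.5% at 4°C. Centrifugation at 21,000xg for 90 min left soluble protein in the supernatant, which TMTpro 16plex LC-MS/MS quantified with equalised channel sums. Results are log-two fold changes in thermal stability compared with solvent controls, from duplicates.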

[1] = compound: Cc1nc(Nc2n[nH]c3c2CN(C(=O)N[C@H](CN(C)C)c2ccccc2)C3(C)C)c2sccc2n1
Method in brief: as §1

dasatinib = compound: Cc1nc(Nc2ncc(C(=O)Nc3c(C)cccc3Cl)s2)cc(N2CCN(CCO)CC2)n1 [dasatinib]
Method in brief: as §1

[2] = compound: Cc1ncc(-c2ccnc(Nc3ccc(S(C)(=O)=O)cc3)n2)n1C(C)C
Method in brief: as §1

[3] = compound: Cn1cc(-c2ccc3c(c2)CCN3C(=O)Cc2cccc(C(F)(F)F)c2)c2c(N)ncnc21
Method in brief: as §1

quisinostat = compound: Cn1cc(CNCC2CCN(c3ncc(C(=O)NO)cn3)CC2)c2ccccc21 [quisinostat]
Method in brief: as §1

tipifarnib = compound: Cn1cncc1[C@@](N)(c1ccc(Cl)cc1)c1ccc2c(c1)c(-c1cccc(Cl)c1)cc(=O)n2C [tipifarnib]
Method in brief: as §1

[4] = compound: NC(=O)Nc1cc(-c2cccc(F)c2)sc1C(=O)N[C@H]1CCCNC1
Method in brief: as §1

[5] = compound: NC(=O)c1cnc(N[C@@H]2CCCC[C@@H]2N)nc1Nc1cccc(-n2nccn2)c1
Method in brief: as §1

[6] = compound: NC1(c2ccc(-c3nc4ccn5c(=O)[nH]nc5c4cc3-c3ccccc3)cc2)CCC1
Method in brief: as §1

[7] = compound: NCC(=O)Nc1ccc(-n2nc(C(F)(F)F)cc2-c2ccc3c(ccc4ccccc43)c2)cc1
Method in brief: as §1

vorinostat = compound: O=C(CCCCCCC(=O)Nc1ccccc1)NO [vorinostat]
Method in brief: as §1

silmitasertib = compound: O=C(O)c1ccc2c(c1)nc(Nc1cccc(Cl)c1)c1ccncc12 [silmitasertib]
Method in brief: as §1

[8] = compound: O=C1NC(=O)C(c2cnc3ccccn23)=C1c1cn2c3c(cc(F)cc13)CN(C(=O)N1CCCCC1)CC2
Method in brief: as §1

entospletinib = compound: c1cn2cc(-c3ccc4cn[nH]c4c3)nc(Nc3ccc(N4CCOCC4)cc3)c2n1 [entospletinib]
Method in brief: as §1

Measured: log2 fold change

MT-ND1 (UniProt P03886)
inactive: nilotinib -0.054 | [1] 0.005 | dasatinib 0.018 | [2] -0.074 | [3] 0.035 | quisinostat -0.094 | tipifarnib -0.125 | [4] 0.033 | [5] -0.024 | [6] -0.059 | [7] 0.002 | vorinostat 0.072 | silmitasertib 0.033 | [8] 0.015 | entospletinib 0.121

MTX2 (UniProt O75431)
inactive: nilotinib 0.025 | [1] -0.018 | dasatinib -0.024 | [2] 0.004 | [3] -0.007 | quisinostat 0.052 | tipifarnib 0.01 | [4] 0.015 | [5] -0.023 | [6] -0.009 | [7] -0.042 | vorinostat 0.045 | silmitasertib 0.017 | [8] -0.029 | entospletinib -0.042

MTOR (UniProt P42345)
active: vorinostat -0.305
inactive: nilotinib 0.007 | [1] -0.022 | dasatinib -0.064 | [2] 0.001 | [3] 0.039 | quisinostat -0.067 | tipifarnib 0.015 | [4] 0.04 | [5] 0.017 | [6] -0.033 | [7] -0.035 | silmitasertib 0.146 | [8] -0.013 | entospletinib -0.024

MRPL45 (UniProt Q9BRJ2)
inactive: nilotinib -0.122 | [1] 0.019 | dasatinib -0.018 | [2] 0.036 | [3] 0.012 | quisinostat -0.038 | tipifarnib -0.049 | [4] 0.072 | [5] -0.017 | [6] 0.002 | [7] 0.018 | vorinostat -0.14 | silmitasertib 0.005 | [8] -0.015 | entospletinib 0.007

MRPL58 (UniProt Q14197)
inactive: nilotinib -0.022 | [1] 0.045 | dasatinib -0.008 | [2] -0.012 | [3] 0.021 | quisinostat 0.017 | tipifarnib 0.003 | [4] 0.055 | [5] 0.025 | [6] -0.032 | [7] 0.02 | vorinostat -0.053 | silmitasertib -0.008 | [8] 0.038 | entospletinib 0.041

MRPL4 (UniProt Q9BYD3)
inactive: nilotinib 0.086 | [1] -0.022 | dasatinib -0.052 | [2] 0.056 | [3] -0.027 | quisinostat -0.003 | tipifarnib -0.042 | [4] 0.044 | [5] 0.001 | [6] -0.047 | [7] 0.01 | vorinostat 0.033 | silmitasertib -0.037 | [8] 0.017 | entospletinib 0.015

MRPS18B (UniProt Q9Y676)
inactive: nilotinib -0.008 | [1] 0.057 | dasatinib -0.06 | [2] -0.008 | [3] -0.001 | quisinostat -0.011 | tipifarnib -0.002 | [4] -0.006 | [5] 0.037 | [6] -0.065 | [7] 0.012 | vorinostat -0.217 | silmitasertib 0.005 | [8] 0.037 | entospletinib 0.008

Two entries picked at random from those above:
MTOR (UniProt P42345)
active: vorinostat -0.305
inactive: nilotinib 0.007 | [1] -0.022 | dasatinib -0.064 | [2] 0.001 | [3] 0.039 | quisinostat -0.067 | tipifarnib 0.015 | [4] 0.04 | [5] 0.017 | [6] -0.033 | [7] -0.035 | silmitasertib 0.146 | [8] -0.013 | entospletinib -0.024

MRPL4 (UniProt Q9BYD3)
inactive: nilotinib 0.086 | [1] -0.022 | dasatinib -0.052 | [2] 0.056 | [3] -0.027 | quisinostat -0.003 | tipifarnib -0.042 | [4] 0.044 | [5] 0.001 | [6] -0.047 | [7] 0.01 | vorinostat 0.033 | silmitasertib -0.037 | [8] 0.017 | entospletinib 0.015

The list continues:

MTHFS (UniProt P49914)
inactive: nilotinib 0.079 | [1] -0.064 | dasatinib 0.024 | [2] -0.028 | [3] 0.003 | quisinostat -0.126 | tipifarnib -0.037 | [4] 0.06 | [5] 0.006 | [6] -0.033 | [7] 0.031 | vorinostat -0.093 | silmitasertib 0.05 | [8] -0.045 | entospletinib 0.009

MTDH (UniProt Q86UE4)
inactive: nilotinib -0.033 | [1] 0.022 | dasatinib 0.024 | [2] 0.004 | [3] -0.024 | quisinostat 0.009 | tipifarnib -0.03 | [4] -0.006 | [5] -0.016 | [6] -0.033 | [7] 0.028 | vorinostat 0.169 | silmitasertib -0.008 | [8] 0.009 | entospletinib -0.014

MRPS11 (UniProt P82912)
inactive: nilotinib -0.108 | [1] 0.074 | dasatinib -0.109 | [2] 0.006 | [3] 0.038 | quisinostat 0.036 | tipifarnib 0.175 | [4] 0.061 | [5] -0.014 | [6] -0.091 | [7] -0.03 | vorinostat -0.071 | silmitasertib 0.02 | [8] 0.078 | entospletinib -0.024

MRPS9 (UniProt P82933)
inactive: nilotinib -0.038 | [1] 0.004 | dasatinib 0.028 | [2] -0.012 | [3] 0.034 | quisinostat 0.005 | tipifarnib 0.033 | [4] -0.015 | [5] 0 | [6] 0.018 | [7] 0.071 | vorinostat -0.087 | silmitasertib 0.054 | [8] 0.02 | entospletinib -0.02

MTRES1 (UniProt Q9P0P8)
inactive: nilotinib -0.066 | [1] 0.015 | dasatinib 0.132 | [2] 0.049 | [3] -0.026 | quisinostat -0.139 | tipifarnib -0.084 | [4] 0.065 | [5] 0 | [6] 0.009 | [7] -0.128 | vorinostat -0.19 | silmitasertib 0.115 | [8] 0.192 | entospletinib 0.015

MUC1, A0A087WWM1
inactive: nilotinib 0.004 | [1] 0 | dasatinib 0.153 | [2] 0.023 | [3] -0.033 | quisinostat -0.045 | tipifarnib -0.017 | [4] -0.044 | [5] -0.053 | [6] -0.05 | [7] 0.03 | vorinostat 0.031 | silmitasertib 0.014 | [8] 0.001 | entospletinib -0.011

MTX1 (UniProt Q13505)
inactive: nilotinib -0.008 | [1] -0.039 | dasatinib 0.03 | [2] 0.007 | [3] -0.031 | quisinostat 0.039 | tipifarnib -0.014 | [4] -0.007 | [5] -0.02 | [6] 0.023 | [7] 0.034 | vorinostat 0.016 | silmitasertib -0.03 | [8] -0.011 | entospletinib 0.023

MTA3 (UniProt Q9BTC8)
inactive: nilotinib 0.034 | [1] -0.059 | dasatinib -0.005 | [2] -0.019 | [3] -0.017 | quisinostat -0.061 | tipifarnib 0.009 | [4] 0.03 | [5] 0.005 | [6] -0.047 | [7] 0.021 | silmitasertib -0.017 | [8] -0.021 | entospletinib 0.012
active: vorinostat -0.278

MRPL57 (UniProt Q9BQC6)
inactive: nilotinib 0.046 | [1] -0.076 | dasatinib -0.03 | [2] 0.007 | [3] -0.045 | quisinostat -0.03 | tipifarnib 0.022 | [4] 0.003 | [5] 0.036 | [6] 0.027 | [7] -0.066 | vorinostat 0.028 | silmitasertib -0.013 | [8] -0.018 | entospletinib -0.019

MTDH (UniProt E5RJU9)
inactive: nilotinib 0.358 | [1] -0.138 | dasatinib 0.111 | [2] -0.064 | [3] 0.15 | quisinostat -0.128 | tipifarnib 0.055 | [4] -0.063 | [5] 0.071 | [6] -0.102 | [7] 0.1 | vorinostat 0.198 | silmitasertib -0.005 | [8] -0.038 | entospletinib 0.042

MRPL37 (UniProt Q9BZE1)
inactive: nilotinib -0.004 | [1] -0.002 | dasatinib -0.034 | [2] -0.043 | [3] 0.015 | quisinostat -0.051 | tipifarnib -0.005 | [4] 0.032 | [5] 0.017 | [6] -0.023 | [7] -0.023 | vorinostat -0.079 | silmitasertib 0.055 | [8] 0.056 | entospletinib 0.032

MTMR1 (UniProt Q13613)
inactive: nilotinib 0.001 | [1] -0.009 | dasatinib -0.014 | [2] 0.025 | [3] 0.039 | quisinostat 0.15 | tipifarnib 0 | [4] -0.016 | [5] 0.023 | [6] -0.013 | [7] -0.05 | vorinostat -0.188 | silmitasertib 0.037 | [8] -0.008 | entospletinib 0.006

MT-ND2 (UniProt P03891)
inactive: nilotinib -0.038 | [1] -0.018 | dasatinib -0.082 | [2] 0.028 | [3] 0.078 | quisinostat 0.029 | tipifarnib 0.009 | [4] 0.022 | [5] 0.036 | [6] -0.022 | [7] -0.129 | vorinostat 0.048 | silmitasertib 0.079 | [8] -0.066 | entospletinib 0.073

MRPL32 (UniProt Q9BYC8)
inactive: nilotinib 0.032 | [1] 0.015 | dasatinib -0.012 | [2] 0.026 | [3] -0.01 | quisinostat 0.056 | tipifarnib -0.002 | [4] -0.059 | [5] -0.035 | [6] -0.022 | [7] 0.031 | vorinostat -0.007 | silmitasertib 0.028 | [8] 0.034 | entospletinib -0.019
